Experimental data from article PMC7682018.
No constants are given. Whether binding was seen depends on the method and setting. In cells and extracts the contact can be indirect. Some binding calls cover weakened binding; strength is not graded here.

Sequences of proteins named here, by UniProt entry; tags and fusion partners are left off. A change or cut given only in a name is not applied to a line headed by its entry. Residues count along the entry.
UniProt P07766, residues 23-207: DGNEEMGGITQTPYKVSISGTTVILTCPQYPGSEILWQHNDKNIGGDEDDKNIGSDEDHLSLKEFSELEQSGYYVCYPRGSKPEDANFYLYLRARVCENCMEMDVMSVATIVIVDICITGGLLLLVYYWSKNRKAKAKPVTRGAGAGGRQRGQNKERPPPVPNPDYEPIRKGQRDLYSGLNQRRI
UniProt P06240: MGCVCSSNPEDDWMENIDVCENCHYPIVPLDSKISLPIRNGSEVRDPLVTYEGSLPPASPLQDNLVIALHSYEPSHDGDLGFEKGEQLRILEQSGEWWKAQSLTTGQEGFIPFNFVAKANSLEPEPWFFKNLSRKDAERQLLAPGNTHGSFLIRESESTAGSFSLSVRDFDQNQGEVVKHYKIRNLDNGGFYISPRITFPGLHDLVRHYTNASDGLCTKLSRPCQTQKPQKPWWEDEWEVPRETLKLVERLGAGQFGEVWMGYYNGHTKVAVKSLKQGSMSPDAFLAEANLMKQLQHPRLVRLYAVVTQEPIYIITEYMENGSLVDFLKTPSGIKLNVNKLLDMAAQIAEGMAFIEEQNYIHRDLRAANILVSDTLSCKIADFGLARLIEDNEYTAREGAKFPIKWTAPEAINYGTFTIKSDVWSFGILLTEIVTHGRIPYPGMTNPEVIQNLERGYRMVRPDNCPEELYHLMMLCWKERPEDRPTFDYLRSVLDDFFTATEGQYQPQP
UniProt P06239: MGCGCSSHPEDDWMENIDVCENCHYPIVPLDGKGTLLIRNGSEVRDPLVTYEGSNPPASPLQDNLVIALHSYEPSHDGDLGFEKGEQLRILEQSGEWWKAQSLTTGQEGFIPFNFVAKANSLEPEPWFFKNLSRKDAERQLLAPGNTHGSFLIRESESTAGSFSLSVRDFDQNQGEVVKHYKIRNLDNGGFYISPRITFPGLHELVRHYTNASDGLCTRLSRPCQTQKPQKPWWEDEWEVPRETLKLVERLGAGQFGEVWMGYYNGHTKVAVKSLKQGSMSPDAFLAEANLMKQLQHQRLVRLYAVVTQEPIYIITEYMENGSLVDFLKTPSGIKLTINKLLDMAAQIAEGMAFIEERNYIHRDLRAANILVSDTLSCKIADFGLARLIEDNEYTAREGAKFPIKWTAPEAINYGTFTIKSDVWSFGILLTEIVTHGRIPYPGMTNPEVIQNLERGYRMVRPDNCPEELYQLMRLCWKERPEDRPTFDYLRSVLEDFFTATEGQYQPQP

Tests used:
[1] = molecular target: T1, CD45 protein tyrosine phosphatase (mouse) (mouse (endogenous in thymocytes)) (UniProt P06800); test: co-IP; CD45 immunoprecipitated overnight at 4 °C from thymocyte lysates (1% Brij 58, 150 mM NaCl, 150 mM Tris-HCl) in 96-well plates coated with CD45 antibody 30-F11; associated Lck detected with an Lck antibody and alkaline-phosphatase-coupled anti-mouse antibody in a plate reader (ELISA read-out), normalised to Lck in the input
T1 sequence: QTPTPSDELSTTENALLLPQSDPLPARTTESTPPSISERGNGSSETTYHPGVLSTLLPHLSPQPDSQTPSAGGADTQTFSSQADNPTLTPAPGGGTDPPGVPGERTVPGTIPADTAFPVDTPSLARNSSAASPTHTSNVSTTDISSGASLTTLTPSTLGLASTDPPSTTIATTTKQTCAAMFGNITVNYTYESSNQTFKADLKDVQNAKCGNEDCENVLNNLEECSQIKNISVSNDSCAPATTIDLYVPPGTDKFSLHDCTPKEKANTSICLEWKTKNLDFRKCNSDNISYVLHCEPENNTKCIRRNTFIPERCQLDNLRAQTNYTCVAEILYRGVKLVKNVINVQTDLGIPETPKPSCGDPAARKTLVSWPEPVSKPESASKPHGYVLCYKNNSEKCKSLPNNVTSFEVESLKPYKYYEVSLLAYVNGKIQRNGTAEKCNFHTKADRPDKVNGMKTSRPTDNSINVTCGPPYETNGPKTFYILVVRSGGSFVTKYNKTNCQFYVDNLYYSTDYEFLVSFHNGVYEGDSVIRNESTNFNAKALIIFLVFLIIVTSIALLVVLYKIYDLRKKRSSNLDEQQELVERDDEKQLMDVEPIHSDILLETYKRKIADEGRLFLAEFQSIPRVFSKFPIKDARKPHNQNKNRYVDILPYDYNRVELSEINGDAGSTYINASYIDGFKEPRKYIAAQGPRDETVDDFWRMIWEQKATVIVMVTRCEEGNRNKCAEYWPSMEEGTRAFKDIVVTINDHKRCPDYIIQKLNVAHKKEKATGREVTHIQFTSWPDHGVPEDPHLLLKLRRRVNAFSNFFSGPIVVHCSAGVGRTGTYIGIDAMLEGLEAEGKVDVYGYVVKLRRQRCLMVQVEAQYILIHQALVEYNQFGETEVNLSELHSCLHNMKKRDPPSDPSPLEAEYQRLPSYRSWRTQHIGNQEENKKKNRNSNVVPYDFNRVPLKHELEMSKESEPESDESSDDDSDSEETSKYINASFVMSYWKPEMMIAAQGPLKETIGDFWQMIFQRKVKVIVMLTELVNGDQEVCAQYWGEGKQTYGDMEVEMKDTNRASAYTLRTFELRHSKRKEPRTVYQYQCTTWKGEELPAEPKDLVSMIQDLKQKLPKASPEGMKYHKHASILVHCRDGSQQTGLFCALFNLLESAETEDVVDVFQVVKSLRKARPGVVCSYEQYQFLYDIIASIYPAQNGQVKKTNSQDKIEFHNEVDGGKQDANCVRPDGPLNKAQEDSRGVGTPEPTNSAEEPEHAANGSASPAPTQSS

[2] = molecular target: CD3ε chain of the TCR/CD3 complex (human, Jurkat) (human (endogenous in Jurkat)) (UniProt P07766); test: proximity ligation; in situ PLA (Duolink) between CD3ε and Lck in fixed, permeabilised J.Lck cells stably expressing Lck^wt or Lck^Y192E; cells unstimulated, stimulated with TCR antibody C305 or with 1 mM pervanadate for 5 min at 37 °C; signal means a distance smaller than 80 nm

Row | binding [1] | binding [2] | Substance
1 | binds |  | p56Lck Y192E, phosphomimetic knock-in mutant (mouse) (from UniProt P06240 1-509) (enzyme)
2 |  | binds | p56Lck Y192E, re-expressed in J.Lck cells (from UniProt P06239 1-509) (enzyme)
3 | binds |  | p56Lck, wild type (mouse) (from UniProt P06240 1-509) (enzyme)
4 |  | binds | p56Lck, wild type, re-expressed in J.Lck cells (from UniProt P06239 1-509) (enzyme)
